Results are given in words; binding and its absence hold for the method and conditions named. In cells and extracts the contact can be indirect. Some entries that bind do so weakly or less than the wild type. For some of these results: Tags and fused reporters may be left off the sequences shown.
T1: UHRF1 (ubiquitin-like, containing PHD and RING finger domains 1) (mouse (endogenous in testes)) (UniProt Q8VDF2)
T1 sequence: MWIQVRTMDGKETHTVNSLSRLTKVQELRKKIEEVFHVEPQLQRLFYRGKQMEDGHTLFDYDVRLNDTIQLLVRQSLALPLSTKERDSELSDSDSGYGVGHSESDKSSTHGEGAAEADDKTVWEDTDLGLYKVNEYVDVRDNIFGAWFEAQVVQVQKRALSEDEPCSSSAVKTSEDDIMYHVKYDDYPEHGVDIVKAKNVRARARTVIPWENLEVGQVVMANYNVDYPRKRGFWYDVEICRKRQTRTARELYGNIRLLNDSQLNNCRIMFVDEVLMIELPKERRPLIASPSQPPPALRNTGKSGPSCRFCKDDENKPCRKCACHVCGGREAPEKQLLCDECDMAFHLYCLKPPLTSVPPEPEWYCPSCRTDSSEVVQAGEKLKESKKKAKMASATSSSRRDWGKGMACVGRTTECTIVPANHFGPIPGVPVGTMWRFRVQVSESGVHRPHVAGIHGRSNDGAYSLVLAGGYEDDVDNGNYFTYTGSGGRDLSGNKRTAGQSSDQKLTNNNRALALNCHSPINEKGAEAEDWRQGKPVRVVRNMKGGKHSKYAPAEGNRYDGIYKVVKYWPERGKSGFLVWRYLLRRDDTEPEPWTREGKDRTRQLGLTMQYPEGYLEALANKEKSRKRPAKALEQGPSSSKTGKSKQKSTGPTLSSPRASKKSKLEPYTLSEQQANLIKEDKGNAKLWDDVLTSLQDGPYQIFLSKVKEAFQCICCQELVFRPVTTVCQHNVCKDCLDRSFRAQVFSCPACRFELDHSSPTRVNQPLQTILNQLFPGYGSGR

By UniProt entry, the sequences of proteins in these tests, tags left out.
UniProt Q8CIG8: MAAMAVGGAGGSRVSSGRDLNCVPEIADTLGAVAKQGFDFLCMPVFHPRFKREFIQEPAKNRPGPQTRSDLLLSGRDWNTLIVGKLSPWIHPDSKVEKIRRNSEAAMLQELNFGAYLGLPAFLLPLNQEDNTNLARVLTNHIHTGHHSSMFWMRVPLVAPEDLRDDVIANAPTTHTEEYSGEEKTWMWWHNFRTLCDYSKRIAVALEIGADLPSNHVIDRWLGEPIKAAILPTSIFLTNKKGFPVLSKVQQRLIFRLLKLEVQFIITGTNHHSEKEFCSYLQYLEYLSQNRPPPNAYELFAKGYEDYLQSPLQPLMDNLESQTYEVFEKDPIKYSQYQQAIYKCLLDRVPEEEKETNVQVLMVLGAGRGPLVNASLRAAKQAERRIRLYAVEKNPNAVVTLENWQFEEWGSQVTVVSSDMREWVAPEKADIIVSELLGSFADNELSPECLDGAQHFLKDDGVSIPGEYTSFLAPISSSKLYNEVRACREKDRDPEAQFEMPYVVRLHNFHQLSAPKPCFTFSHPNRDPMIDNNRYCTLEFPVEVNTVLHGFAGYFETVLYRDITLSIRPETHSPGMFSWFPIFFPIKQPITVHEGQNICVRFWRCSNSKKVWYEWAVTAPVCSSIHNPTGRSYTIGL
UniProt Q9JMB7: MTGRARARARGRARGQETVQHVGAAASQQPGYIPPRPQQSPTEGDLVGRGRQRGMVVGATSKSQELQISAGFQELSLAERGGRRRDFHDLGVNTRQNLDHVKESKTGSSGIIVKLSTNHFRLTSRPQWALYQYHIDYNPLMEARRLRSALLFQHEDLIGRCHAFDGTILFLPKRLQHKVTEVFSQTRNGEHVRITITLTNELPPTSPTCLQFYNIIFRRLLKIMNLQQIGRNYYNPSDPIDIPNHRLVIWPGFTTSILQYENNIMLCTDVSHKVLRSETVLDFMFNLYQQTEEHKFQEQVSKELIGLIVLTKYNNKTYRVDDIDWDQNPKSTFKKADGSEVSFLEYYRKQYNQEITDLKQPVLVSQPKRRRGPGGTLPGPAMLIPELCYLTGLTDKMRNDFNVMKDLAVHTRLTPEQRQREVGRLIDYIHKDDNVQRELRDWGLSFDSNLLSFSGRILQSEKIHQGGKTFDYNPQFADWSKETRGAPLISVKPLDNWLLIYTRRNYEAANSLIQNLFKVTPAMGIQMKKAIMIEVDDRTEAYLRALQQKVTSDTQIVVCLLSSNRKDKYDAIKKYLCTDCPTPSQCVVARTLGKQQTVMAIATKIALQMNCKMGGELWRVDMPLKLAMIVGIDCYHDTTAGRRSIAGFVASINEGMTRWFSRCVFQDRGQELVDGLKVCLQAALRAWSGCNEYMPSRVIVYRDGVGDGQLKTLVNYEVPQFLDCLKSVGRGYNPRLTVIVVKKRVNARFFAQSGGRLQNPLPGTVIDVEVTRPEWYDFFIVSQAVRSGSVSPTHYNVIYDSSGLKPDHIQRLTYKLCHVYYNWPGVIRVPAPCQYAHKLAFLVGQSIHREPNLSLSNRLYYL
UniProt Q8CDG1: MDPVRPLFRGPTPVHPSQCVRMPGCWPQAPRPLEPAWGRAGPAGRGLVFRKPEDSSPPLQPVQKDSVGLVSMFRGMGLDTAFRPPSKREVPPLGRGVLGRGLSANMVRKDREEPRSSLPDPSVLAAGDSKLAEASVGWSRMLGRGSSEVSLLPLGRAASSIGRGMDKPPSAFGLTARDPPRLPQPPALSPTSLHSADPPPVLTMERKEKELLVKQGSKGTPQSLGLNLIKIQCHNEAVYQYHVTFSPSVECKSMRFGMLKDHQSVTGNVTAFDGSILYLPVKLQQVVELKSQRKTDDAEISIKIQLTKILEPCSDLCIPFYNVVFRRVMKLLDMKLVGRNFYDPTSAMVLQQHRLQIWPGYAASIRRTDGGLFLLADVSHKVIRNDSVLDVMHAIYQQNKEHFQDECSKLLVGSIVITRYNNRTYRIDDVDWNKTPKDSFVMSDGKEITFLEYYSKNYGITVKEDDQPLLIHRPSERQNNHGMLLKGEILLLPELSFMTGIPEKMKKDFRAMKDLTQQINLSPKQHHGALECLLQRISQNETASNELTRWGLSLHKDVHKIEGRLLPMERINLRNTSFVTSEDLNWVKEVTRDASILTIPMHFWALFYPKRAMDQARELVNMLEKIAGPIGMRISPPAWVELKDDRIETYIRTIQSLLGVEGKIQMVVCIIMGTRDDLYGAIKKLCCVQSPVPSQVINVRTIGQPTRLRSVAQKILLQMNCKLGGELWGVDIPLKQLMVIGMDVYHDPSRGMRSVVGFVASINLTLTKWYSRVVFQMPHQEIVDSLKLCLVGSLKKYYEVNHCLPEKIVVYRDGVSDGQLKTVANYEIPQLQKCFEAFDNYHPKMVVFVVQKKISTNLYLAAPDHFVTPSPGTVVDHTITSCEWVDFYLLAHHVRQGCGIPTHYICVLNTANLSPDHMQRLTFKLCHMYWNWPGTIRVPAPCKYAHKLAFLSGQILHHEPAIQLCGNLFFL


Tests used:
[1] = molecular target: T1, UHRF1 (ubiquitin-like, containing PHD and RING finger domains 1) (mouse (endogenous in testes)); assay: co-IP; lysate of adult mouse testes (control and Uhrf1 cKO) in IP buffer (20 mM HEPES, 150 mM NaCl, 2 mM magnesium acetate, 0.2% NP-40, 1 mM DTT, pH 7.3); primary antibody overnight at 4 °C, protein A beads; western blot
[2] = molecular target: PRMT5 (mouse (endogenous in testes)) (UniProt Q8CIG8); assay: as above
[3] = molecular target: MYC-tagged PRMT5 (UniProt Q8CIG8); assay: co-IP; HEK293T cells co-transfected with FLAG- and MYC-tagged plasmids, 48 h; immunoprecipitation with anti-MYC antibody; western blot with anti-FLAG and anti-MYC
[4] = molecular target: MIWI (mouse (endogenous in testes)) (UniProt Q9JMB7); assay: co-IP; lysate of adult mouse testes (control and Uhrf1 cKO) in IP buffer (20 mM HEPES, 150 mM NaCl, 2 mM magnesium acetate, 0.2% NP-40, 1 mM DTT, pH 7.3); primary antibody overnight at 4 °C, protein A beads; western blot
[5] = molecular target: MILI (mouse (endogenous in testes)) (UniProt Q8CDG1); assay: as above

binding [1]	binding [2]	binding [3]	binding [4]	binding [5]	Molecule
binds	binds				MIWI (from UniProt Q9JMB7 1-862)
		binds			FLAG-tagged UHRF1 (protein, UniProt Q8VDF2 1-782) MWIQVRTMDGKETHTVNSLSRLTKVQELRKKIEEVFHVEPQLQRLFYRGKQMEDGHTLFDYDVRLNDTIQLLVRQSLALPLSTKERDSELSDSDSGYGVGHSESDKSSTHGEGAAEADDKTVWEDTDLGLYKVNEYVDVRDNIFGAWFEAQVVQVQKRALSEDEPCSSSAVKTSEDDIMYHVKYDDYPEHGVDIVKAKNVRARARTVIPWENLEVGQVVMANYNVDYPRKRGFWYDVEICRKRQTRTARELYGNIRLLNDSQLNNCRIMFVDEVLMIELPKERRPLIASPSQPPPALRNTGKSGPSCRFCKDDENKPCRKCACHVCGGREAPEKQLLCDECDMAFHLYCLKPPLTSVPPEPEWYCPSCRTDSSEVVQAGEKLKESKKKAKMASATSSSRRDWGKGMACVGRTTECTIVPANHFGPIPGVPVGTMWRFRVQVSESGVHRPHVAGIHGRSNDGAYSLVLAGGYEDDVDNGNYFTYTGSGGRDLSGNKRTAGQSSDQKLTNNNRALALNCHSPINEKGAEAEDWRQGKPVRVVRNMKGGKHSKYAPAEGNRYDGIYKVVKYWPERGKSGFLVWRYLLRRDDTEPEPWTREGKDRTRQLGLTMQYPEGYLEALANKEKSRKRPAKALEQGPSSSKTGKSKQKSTGPTLSSPRASKKSKLEPYTLSEQQANLIKEDKGNAKLWDDVLTSLQDGPYQIFLSKVKEAFQCICCQELVFRPVTTVCQHNVCKDCLDRSFRAQVFSCPACRFELDHSSPTRVNQPLQTILNQLFPGYGSGR
	binds		binds	binds	UHRF1 (ubiquitin-like, containing PHD and RING finger domains 1) (protein, UniProt Q8VDF2 1-782) MWIQVRTMDGKETHTVNSLSRLTKVQELRKKIEEVFHVEPQLQRLFYRGKQMEDGHTLFDYDVRLNDTIQLLVRQSLALPLSTKERDSELSDSDSGYGVGHSESDKSSTHGEGAAEADDKTVWEDTDLGLYKVNEYVDVRDNIFGAWFEAQVVQVQKRALSEDEPCSSSAVKTSEDDIMYHVKYDDYPEHGVDIVKAKNVRARARTVIPWENLEVGQVVMANYNVDYPRKRGFWYDVEICRKRQTRTARELYGNIRLLNDSQLNNCRIMFVDEVLMIELPKERRPLIASPSQPPPALRNTGKSGPSCRFCKDDENKPCRKCACHVCGGREAPEKQLLCDECDMAFHLYCLKPPLTSVPPEPEWYCPSCRTDSSEVVQAGEKLKESKKKAKMASATSSSRRDWGKGMACVGRTTECTIVPANHFGPIPGVPVGTMWRFRVQVSESGVHRPHVAGIHGRSNDGAYSLVLAGGYEDDVDNGNYFTYTGSGGRDLSGNKRTAGQSSDQKLTNNNRALALNCHSPINEKGAEAEDWRQGKPVRVVRNMKGGKHSKYAPAEGNRYDGIYKVVKYWPERGKSGFLVWRYLLRRDDTEPEPWTREGKDRTRQLGLTMQYPEGYLEALANKEKSRKRPAKALEQGPSSSKTGKSKQKSTGPTLSSPRASKKSKLEPYTLSEQQANLIKEDKGNAKLWDDVLTSLQDGPYQIFLSKVKEAFQCICCQELVFRPVTTVCQHNVCKDCLDRSFRAQVFSCPACRFELDHSSPTRVNQPLQTILNQLFPGYGSGR
binds					TDRKH (protein, UniProt Q80VL1 1-560) MSTERTSWTNLSTIQKIALGLGIPASATVAYILYRRYRESREERLTFVGEDDIEIEMRVPQEAVKLIIGRQGANIKQLRKQTGARIDVDTEDVGDERVLLISGFPVQVCKAKAAIHQILTENTPVFEQLSVPQRSVGRIIGRGGETIRSICKASGAKITCDKESEGTLLLSRLIKISGTQKEVAAAKHLILEKVSEDEELRKRIAHSAETRVPRKQPISVRREEVTEPGGAGEAALWKNTNSSMGPATPLEVPLRKGGGDMVVVGPKEGSWEKPNDDSFQNSGAQSSPETSMFEIPSPDFSFHADEYLEVYVSASEHPNHFWIQIIGSRSLQLDKLVSEMTQHYENSLPEDLTVHVGDIVAAPLSTNGSWYRARVLGTLENGNLDLYFVDFGDNGDCALKDLRALRSDFLSLPFQAIECSLARIAPTGEEWEEEALDEFDRLTHCADWKPLVAKISSYVQTGISTWPKIYLYDTSDEKKLDIGLELVRKGYAVELPEDMEENRTVPNMLKDMATETDDSLASILTETKKSPEEMPHTLSCLSLSEAASMSGDDNLEDDLF
